PubChem BioAssay AID504784 | Drosophila RNAi Screening Center, 2011
In all, the deposit lists about 17,000 reagents; below is an unselected part of those that have a named target and a result. 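Each column is one replicate's B-score; the combined score over replicates was not deposited, so single values may mislead.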 A plus sign joins genes that one reagent is predicted to hit. Not all columns of the deposit are shown. Reagent sequences are not shown.

Test: 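Fly genes whose silencing alters how much lipid cells keep in droplets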 (primary screen)
Cell system: Drosophila Kc167 embryonic cells
Reagent: long dsRNA against Drosophila genes, about 250 ng dsRNA per well
Time to read-out: 4 days
Treatment: cells fed 400 µM oleic acid bound to BSA
Detection: 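Cells imaged and segmented; ratio of lipid droplet area to nuclear area, log-transformed, then normalised as a B-score over the screen; higher means more stored lipid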
Direction: droplet/nuclear area B-score: higher = more stored lipid (overstorage)

With BEAF-32 + CG42254 (retired record) [DRSC05503], what does the deposit list?
droplet/nuclear area B-score, replicate 1: 0.943

With lin (GeneID 45325) [DRSC07644], what was measured?
droplet/nuclear area B-score, replicate 1: -2.06

What is on record for crc (GeneID 47767) [DRSC03513]?
droplet/nuclear area B-score, replicate 1: 1.47

With CG14294 (GeneID 42262) [DRSC14774], what does the deposit list?
droplet/nuclear area B-score, replicate 1: 1.24

For CG10359 (GeneID 38434) [DRSC08156], what does the deposit list?
droplet/nuclear area B-score, replicate 1: 0.118

Which result is listed for Nup43 (GeneID 42209) [DRSC16279]?
droplet/nuclear area B-score, replicate 1: -1.57

What did the screen give for CG12219 (GeneID 31572) [DRSC17829]?
droplet/nuclear area B-score, replicate 1: 0.823

What did the screen give for c(2)M (GeneID 34964) [DRSC01922]?
droplet/nuclear area B-score, replicate 1: -1.88

With Nedd4 (GeneID 39958) [DRSC11234], what does the deposit list?
droplet/nuclear area B-score, replicate 1: 0.00065

How did the screen score Nedd4 (GeneID 39958) [DRSC21548]?
droplet/nuclear area B-score, replicate 1: 0.391

Which result is listed for CG31404 (GeneID 318714) [DRSC15497]?
droplet/nuclear area B-score, replicate 1: 0.0402

For CG11241 (GeneID 40492) [DRSC11641], what was measured?
droplet/nuclear area B-score, replicate 1: 0.989

How did the screen score CG11241 (GeneID 40492) [DRSC22165]?
droplet/nuclear area B-score, replicate 1: -0.148

With CG3213 (GeneID 33574) [DRSC00576], how do the results read?
droplet/nuclear area B-score, replicate 1: 4.42

Which result is listed for CG32132 (retired record) (GeneID 317877) [DRSC22437]?
droplet/nuclear area B-score, replicate 1: -5.3

Which result is listed for CG32132 (retired record) (GeneID 317877) [DRSC23128]?
droplet/nuclear area B-score, replicate 1: 1.17

Part of the list above, reformatted.
| predicted target | dsRNA | droplet/nuclear area B-score, replicate 1 |
| --- | --- | --- |
| CG11241 (GeneID 40492) | DRSC11641 | 0.989 |
| CG11241 (GeneID 40492) | DRSC22165 | -0.148 |
